Measured values reported in paper PMC7819943, “Rice protein-binding microarrays: a tool to detect cis-acting elements near promoter regions in rice”.
This is one part of the list.

Sequences of proteins named here, by UniProt entry; tags and fusion partners are left off.
UniProt Q0JBA9, entry or part of it: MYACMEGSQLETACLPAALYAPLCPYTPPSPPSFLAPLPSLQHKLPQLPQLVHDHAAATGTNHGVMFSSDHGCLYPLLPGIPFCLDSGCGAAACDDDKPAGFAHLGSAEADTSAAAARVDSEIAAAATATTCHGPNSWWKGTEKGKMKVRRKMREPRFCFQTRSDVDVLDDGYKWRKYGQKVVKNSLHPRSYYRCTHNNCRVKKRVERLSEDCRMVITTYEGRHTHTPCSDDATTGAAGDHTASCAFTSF

The sequences below were run against OsWRKY34 (Oryza sativa, UniProt Q0JBA9 1-250) (assay: protein-binding microarray (RPBM); PBS, 2% BSA, 51.3 ng/ul salmon testes DNA, 50 uM zinc acetate, 200 nM TF, 25 C, 1 h; high values mean tight binding). Settings: protein: recombinant; tags: N-terminal polyhistidine and DsRed monomer fusion (pET32a); label: CyDye5-dUTP incorporated in the synthesized complementary strand; 3' TTTTT single-stranded linker to array surface; dsDNA, one strand shown.
In short: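 A custom Agilent array was converted to double-stranded form by primer extension with Cy5-dUTP and blocked with 2% BSA. Protein at 200 nM in PBS with 2% BSA, salmon testes DNA and 50 µM zinc acetate was applied for 1 h at 25 °C, followed by washing. The proteins were polyhistidine–DsRed N-terminal fusions of transcription factors, expressed in E. coli BL21-CodonPlus and Ni–NTA-purified. The binding signal is per-feature fluorescence intensity (arbitrary units) from an Axon 4000B scanner.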

Sequence | binding signal
GGATGCTCCTTCTGTGTGTCTTCTGCTGGTCTTGGTGATCCGGAGTCACCTAGTGCAG | 8550 fluorescence intensity (a.u.)
TCCTGCTGCTTCCACCGCGTCCTCGCCTGCCTGCCTGCCGCGGAGTCACCTAGTGCAG | 9500 fluorescence intensity (a.u.)
TCCCTTTGCTCAATTTCAGTTTCTTTTTCTTTTGCTTTGGCGGAGTCACCTAGTGCAG | 8860 fluorescence intensity (a.u.)
GTCTCGCAATTTACATGTAATATGTGTAATTGATTTTTTTCGGAGTCACCTAGTGCAG | 9190 fluorescence intensity (a.u.)
CTCTGAAGCCTCTTCTTCTTCCTCTGATTCCTCTCTCCTTCGGAGTCACCTAGTGCAG | 9080 fluorescence intensity (a.u.)
ACATGTCTGCTTTGTTATTCATTGGCTTGTTGGACAATACCGGAGTCACCTAGTGCAG | 9150 fluorescence intensity (a.u.)
TTTATTTCTGGATGATAAGCTGTTCCTCTTTTTTTCAATACGGAGTCACCTAGTGCAG | 9590 fluorescence intensity (a.u.)
ACTTTTTTGTTGATGATTTTTTCAGTTGAAATTATTTAGTCGGAGTCACCTAGTGCAG | 8830 fluorescence intensity (a.u.)
CTGTTCCTCACCACAGCTCGGTTTTGCACATCCGGTTTTCCGGAGTCACCTAGTGCAG | 9270 fluorescence intensity (a.u.)
GTGGTGGTGGTGGTGCACCCGCGCGGGCATGGCGATCGGTCGGAGTCACCTAGTGCAG | 11200 fluorescence intensity (a.u.)
TAGTACGCGTGTCATCGTCGAGCTCGAGCCCATCCATCCACGGAGTCACCTAGTGCAG | 10700 fluorescence intensity (a.u.)
CGGTTTTAATTTTATGTTTTTGTCAAATTCTTTTTGTTTTCGGAGTCACCTAGTGCAG | 9450 fluorescence intensity (a.u.)
TATTTGGTTCTTGTACAATGTTTACTCTGAAATTCAGATTCGGAGTCACCTAGTGCAG | 9780 fluorescence intensity (a.u.)
TACGACACTATTTATTTTCATACTTTGACCACTTGTCTCTCGGAGTCACCTAGTGCAG | 12100 fluorescence intensity (a.u.)
TCAGCCTCGATCTTGCAAGTTGATCCTATCATGATCATCCCGGAGTCACCTAGTGCAG | 9500 fluorescence intensity (a.u.)
ATTAGTATATCCCTTGTAAGCCGCACGGGGAGGGTGCGACCGGAGTCACCTAGTGCAG | 9310 fluorescence intensity (a.u.)
ATATACTCCGTTTTTTTATTTGATGTTTCCGACACGATTGCGGAGTCACCTAGTGCAG | 8750 fluorescence intensity (a.u.)
TACAACAACATGCCTTTTTACTTATGACCCTGATGGATATCGGAGTCACCTAGTGCAG | 9020 fluorescence intensity (a.u.)
AATCACACGGTCATGTTGTAGGTCTTCTCTTCTCCACCCACGGAGTCACCTAGTGCAG | 8740 fluorescence intensity (a.u.)
CCTCTCTCTCTCTCTCACACTGACGACGGCGAGGGCGGGACGGAGTCACCTAGTGCAG | 8220 fluorescence intensity (a.u.)
GTAACAATATTCAACTTGCTTCAAATCAAATACTCCTCTTCGGAGTCACCTAGTGCAG | 8680 fluorescence intensity (a.u.)

A portion from the list above, as a working copy:
Sequence | binding signal
ACATGTCTGCTTTGTTATTCATTGGCTTGTTGGACAATACCGGAGTCACCTAGTGCAG | 9150 fluorescence intensity (a.u.)
TTTATTTCTGGATGATAAGCTGTTCCTCTTTTTTTCAATACGGAGTCACCTAGTGCAG | 9590 fluorescence intensity (a.u.)
ACTTTTTTGTTGATGATTTTTTCAGTTGAAATTATTTAGTCGGAGTCACCTAGTGCAG | 8830 fluorescence intensity (a.u.)
CTGTTCCTCACCACAGCTCGGTTTTGCACATCCGGTTTTCCGGAGTCACCTAGTGCAG | 9270 fluorescence intensity (a.u.)
GTGGTGGTGGTGGTGCACCCGCGCGGGCATGGCGATCGGTCGGAGTCACCTAGTGCAG | 11200 fluorescence intensity (a.u.)
TAGTACGCGTGTCATCGTCGAGCTCGAGCCCATCCATCCACGGAGTCACCTAGTGCAG | 10700 fluorescence intensity (a.u.)

Continuation.

Sequence | binding signal
GATTCGTATTCGCTCCGTATTTGTATTCGATAATATTCGACGGAGTCACCTAGTGCAG | 9180 fluorescence intensity (a.u.)
TGAAATTTCTACTGTCATGCTTCCTTGTCCCATTACTACACGGAGTCACCTAGTGCAG | 11900 fluorescence intensity (a.u.)
AGTTCATTTCCTCAAAATTTCTGTAAAATTTATCCATTTCCGGAGTCACCTAGTGCAG | 10700 fluorescence intensity (a.u.)
ACTTCTTTTATTTTTTTTCTCCGTGTGGTGGTGGTCTGGCCGGAGTCACCTAGTGCAG | 10100 fluorescence intensity (a.u.)
GCTTCAATCCATATGATCTGTGTAACTGTCTGCCTTCCCTCGGAGTCACCTAGTGCAG | 8240 fluorescence intensity (a.u.)
ATCATCACACCTTTAGTACTTTTACTGCCATTCTTTTTTTCGGAGTCACCTAGTGCAG | 13700 fluorescence intensity (a.u.)
TATCCGGTTTTCTGGTTGAGGGGTATGAATTAGATTCGACCGGAGTCACCTAGTGCAG | 10200 fluorescence intensity (a.u.)
CCTCCGTGTTCCTGTCCGGCATTTATGATTTTCTCGCCTACGGAGTCACCTAGTGCAG | 10100 fluorescence intensity (a.u.)
GCCGCCTCTGCACTGCGCCGCCTGCCTGCCTGCCGCGACCCGGAGTCACCTAGTGCAG | 8810 fluorescence intensity (a.u.)
TCCGTTTCGTTTTATTTGACACCGTTGACTTTTTAGCACACGGAGTCACCTAGTGCAG | 19500 fluorescence intensity (a.u.)
TGATATCTTCTTGTTATTGTTTCCCTTAGTTGTCTGAGATCGGAGTCACCTAGTGCAG | 8300 fluorescence intensity (a.u.)
GCCCCGAGTTTTGATTGGTTATTCGTTGCTGCTTGTAAACCGGAGTCACCTAGTGCAG | 10900 fluorescence intensity (a.u.)
GACGGCCCAGATCACGCGCGCTCCTCCGCTTTCCTTTTCCCGGAGTCACCTAGTGCAG | 8430 fluorescence intensity (a.u.)
TCACACACACGTTCCCAAACTTCTAAACCGTAATTTTAAACGGAGTCACCTAGTGCAG | 8140 fluorescence intensity (a.u.)
CCATTCCATCCAACATTTTGTCCATCCATATCGTCTACTCCGGAGTCACCTAGTGCAG | 9200 fluorescence intensity (a.u.)
TCCATATGCCGTCTATATCTTTTTGTCATGGCAGCAGGAACGGAGTCACCTAGTGCAG | 8210 fluorescence intensity (a.u.)
GTGCTTTACTTACCAGCTGCCTGTTTTTTCTTCTCTTTCCCGGAGTCACCTAGTGCAG | 10500 fluorescence intensity (a.u.)
GCGGTCTCTTTTTGTTAATTCGCATTTCTTTATTTATTTACGGAGTCACCTAGTGCAG | 13000 fluorescence intensity (a.u.)
ATGTAGAGTCATCAGGTTTAGGCGCTTGGGTTTTGTTGGACGGAGTCACCTAGTGCAG | 8070 fluorescence intensity (a.u.)
AAACTGGACGCTTCAATTCCACTGTCCCACTGTCCCACCCCGGAGTCACCTAGTGCAG | 8160 fluorescence intensity (a.u.)
TTCTTATTTGTCAACAATGTTTTTTTTTTGCGGGGATTATCGGAGTCACCTAGTGCAG | 11500 fluorescence intensity (a.u.)

Sequence | binding signal
TTTTAATATCATTTTTATTTGTGTTGAAAATTTTACTATACGGAGTCACCTAGTGCAG | 8180 fluorescence intensity (a.u.)
CTCCTCATCCCCACGCCACCGCCGCCATCGCCGGCCTTTTCGGAGTCACCTAGTGCAG | 8220 fluorescence intensity (a.u.)
GCCTTGAATCCACCTGACCTGTGCCTCGTACTCCCATAATCGGAGTCACCTAGTGCAG | 9730 fluorescence intensity (a.u.)
TTGGACACAGGTAGGATGGTTATTTTTTTGGGTGAGAGAACGGAGTCACCTAGTGCAG | 8740 fluorescence intensity (a.u.)
CACATTAACTCAGCCCTGCTTGGCCCTAGACGTGATCAATCGGAGTCACCTAGTGCAG | 8830 fluorescence intensity (a.u.)
ATTCTCCTCTCTCTCAATCGCTTCGCCCACCCGCTTGTCACGGAGTCACCTAGTGCAG | 10600 fluorescence intensity (a.u.)
ACCCAAAACCTACAGCATACACACTTGCTCCATTACACTTCGGAGTCACCTAGTGCAG | 9940 fluorescence intensity (a.u.)
TTCCATGTTGCTATGGCTAGTTATCTTGAGTATTTACGTGCGGAGTCACCTAGTGCAG | 10300 fluorescence intensity (a.u.)
ATATTCCATCGATCCTACAAAATCTAAACAATTGTATGTTCGGAGTCACCTAGTGCAG | 8290 fluorescence intensity (a.u.)
CCTTGCAACATGAAATTTTTTTTGTCCTGACATACTCATACGGAGTCACCTAGTGCAG | 8150 fluorescence intensity (a.u.)
GGATAATATGTCGATCCATTTTCTGATGCCATATCCCATCCGGAGTCACCTAGTGCAG | 8150 fluorescence intensity (a.u.)
CCCCACCCACCGCCTGCCAGCGCCACCCCACCTCGCGCCTCGGAGTCACCTAGTGCAG | 11800 fluorescence intensity (a.u.)
GTTCTCTCTCTGTATGTGTTTTATTGGAGTATTTGTCAGTCGGAGTCACCTAGTGCAG | 8610 fluorescence intensity (a.u.)
CACCTGTATGCCTACTACTTTTGTCACCAACCCAATCCCCCGGAGTCACCTAGTGCAG | 8330 fluorescence intensity (a.u.)
GTCAAACGTTGGTTAAAAAGTCAACAGCATCATACATTAACGGAGTCACCTAGTGCAG | 10400 fluorescence intensity (a.u.)
TGGGCGCGTATTTTTCGTTTTTTCGTCTGGGCACTCCGTTCGGAGTCACCTAGTGCAG | 11500 fluorescence intensity (a.u.)
ACTCGTCGCCCTCTCATCTCATGTTGTAGTATTCCCTCCGCGGAGTCACCTAGTGCAG | 8600 fluorescence intensity (a.u.)
GGGTGGGCAAGATGCTCCTACGGCGGCTTCTTCTTTTGGCCGGAGTCACCTAGTGCAG | 8270 fluorescence intensity (a.u.)
GGCATGCACCCACCTGGCATTTGCTGGCGCAACGGAGGTCCGGAGTCACCTAGTGCAG | 8090 fluorescence intensity (a.u.)
GCCGCCGCCGCCGCCGCCGCCGCTGTGTGTACGACTACGACGGAGTCACCTAGTGCAG | 8090 fluorescence intensity (a.u.)
CATTTCCTTGTTTGAATCTGCAAGAGTGCTAGTCACAGGCCGGAGTCACCTAGTGCAG | 8470 fluorescence intensity (a.u.)

Sequence | binding signal
ATCAACCCGGTGTCTGCGTTACATTTCTCAATCTTCTGCTCGGAGTCACCTAGTGCAG | 9860 fluorescence intensity (a.u.)
TTCTTTAGTCCCATGCTAGTATGATCATGTCCGATTGTCCCGGAGTCACCTAGTGCAG | 9370 fluorescence intensity (a.u.)
GCGGGCGGCAGCGCGGTGGGGCGGTGGCGGTGGTGGCGGCCGGAGTCACCTAGTGCAG | 9980 fluorescence intensity (a.u.)
CGGGAGAGGGAGGTGATGATGGGGCGGCGGAGGATTGGAGCGGAGTCACCTAGTGCAG | 8130 fluorescence intensity (a.u.)
GCCTCTGCCACGCCCACCTCATCCGCCTCTACCTCCGCTCCGGAGTCACCTAGTGCAG | 9000 fluorescence intensity (a.u.)
TTTCTTCTTTCTTTCATGCCTTAAGCATCACGTTTGTCACCGGAGTCACCTAGTGCAG | 8540 fluorescence intensity (a.u.)
ACAGTTACTTTCCTTATAGCAGTGTAGTTGCCGTGAAAACCGGAGTCACCTAGTGCAG | 8810 fluorescence intensity (a.u.)
TATATTGCCCACACCACATGTTGTTCATTGTTGAAGGCACCGGAGTCACCTAGTGCAG | 8290 fluorescence intensity (a.u.)
AAACCTTTATATCATTTTTTATAATTTATGATTTTTGTCTCGGAGTCACCTAGTGCAG | 8410 fluorescence intensity (a.u.)
ATTTTAAATGTTTCGTTGACTAAATGGGTTGTTATAGCCGCGGAGTCACCTAGTGCAG | 10100 fluorescence intensity (a.u.)
ACTTCTTTATTACCACGCACTTTTCTTCCTTAGTTTTATTCGGAGTCACCTAGTGCAG | 13700 fluorescence intensity (a.u.)
TGTCGTTGTTTGTCCTGCTGCTTCAGAGTTCAGCTGCATCCGGAGTCACCTAGTGCAG | 11300 fluorescence intensity (a.u.)
GCAACCAGCCAGCCAGAAGACTCTTCTATCCTCTTAATTTCGGAGTCACCTAGTGCAG | 8490 fluorescence intensity (a.u.)
CACGTACGCCGCCGTGTCTCATCACGAGCTCGATCGTTTCCGGAGTCACCTAGTGCAG | 8240 fluorescence intensity (a.u.)
CCTAGACTCTACCACCATACCACTATCATCACTTCTTCCGCGGAGTCACCTAGTGCAG | 9330 fluorescence intensity (a.u.)
ACACACAGAGCATTCTTCTTTCATGTCTTGTGATCCTTTTCGGAGTCACCTAGTGCAG | 9250 fluorescence intensity (a.u.)
TCATCTGTTTTACGCCGTGTTTAGTTTTAAAGTTTTTTTTCGGAGTCACCTAGTGCAG | 8260 fluorescence intensity (a.u.)
GATACTTGGTAATGCACACCCGTGAGTTGGCTACTTTCTCCGGAGTCACCTAGTGCAG | 10200 fluorescence intensity (a.u.)
AACGCTGCCGACTATAAATCATCGTATATCACTAACTTTGCGGAGTCACCTAGTGCAG | 8520 fluorescence intensity (a.u.)
TTTTCTTTTGCCATGGTTTATGCAGGAGTTGAACTTATTTCGGAGTCACCTAGTGCAG | 8200 fluorescence intensity (a.u.)
GATTGACGAATACTTGCATAACCGGTGTTTCCAGTTTCCGCGGAGTCACCTAGTGCAG | 8260 fluorescence intensity (a.u.)
